These results are taken from patent US20190079079A1, “3-D TISSUE CULTURE BASED METHOD TO ASSESS MITOCHONDRIAL IMPAIRMENT” (INSPHERO AG, priority 2016, published 2019).

For series [1] the following is noted: from Gustafsson et al; used to calculate MOS; cited from earlier work.
Series [2] deals with 3D primary human hepatocytes microtissues (IPHH_02). Kind of series: Seahorse XF Analyzer measurement of spare respiratory capacity (microtissue-specific respiration rate, MTSRR) after 48 h compound exposure.

The term Cmax denotes the highest concentration seen after dosing. On to `CCCCc1oc2ccccc2c1C(=O)c1cc(I)c(OCCN(CC)CC)c(I)c1` [Amiodarone], for which the Cmax in series [1] was 5.3 µM. Besides, the Mitochondrial toxicity risk result in series [2] (High: IC50_MTSRR<0.75×IC50_CV/CYT, Low: IC50_MTSRR<IC50_CV/CYT and ≥0.75×IC50_CV/CYT, No: IC50_MTSRR≥IC50_CV/CYT (CV/CYT by CellTiter-Glo)) was “high Mitotoxic risk”. Moreover, in series [2] (MOS below 30 = predicted toxic), the “Predicted toxicity from MOS” value is reported as “toxic compound”. Besides, the IC50 in series [2] (read-out: IC50_MTSRR (inhibition of spare respiratory capacity), 3D primary human hepatocyte microtissues, 48 h incubation, sigmoidal dose-response curve (variable slope) of Respiratory Spare Capacity values) turned out to be 25.3 µM.
